Laboratory results reported in patent publication US10899709B2, “Novel-alkynyl-substituted 3-phenylpyrrolidine-2,4-diones and use thereof as herbicides” (BAYER CROPSCIENCE AKTIENGESELLSCHAFT, priority 2015, dated 2021).
Some of these results come from one statement about several compounds together. Some compounds share one range, which may span the group rather than tell each member.

Key:
Type in all cases: in vivo
Lolium multiflorum [1] = experiment: Post-emergence herbicidal effect; settings: 80 g/ha, visual assessment after about 3 weeks
Method: (§1) Seeds of monocotyledonous and dicotyledonous weed and crop plants are laid out in sandy loam in wood-fibre pots, covered with soil and cultivated in a greenhouse under good growth conditions. 2 to 3 weeks after sowing, the test plants are treated at the one-leaf stage. The compounds according to the invention, formulated in the form of wettable powders (WP) or as emulsion concentrates (EC), are then sprayed as aqueous suspension or emulsion at a water application rate of 600 to 800 l/ha (converted) with the addition of 0.2% of wetting agent onto the green parts of the plants. After the test plants have been left to stand in the greenhouse under optimal growth conditions for about 3 weeks, the action of the preparations is assessed visually in comparison to untreated controls (herbicidal action in percent (%): 100% activity=the plants have died, 0% activity=like control plants).

Avena fatua [2] = experiment: Post-emergence herbicidal effect; settings: 80 g/ha, visual assessment after about 3 weeks
Method: as §1

Setaria viridis [3] = experiment: Post-emergence herbicidal effect; settings: 80 g/ha, visual assessment after about 3 weeks
Method: as §1

Alopecurus myosuroides [4] = experiment: Post-emergence herbicidal effect; settings: 80 g/ha, visual assessment after about 3 weeks
Method: as §1

Echinochloa crus-galli [5] = experiment: Post-emergence herbicidal effect; settings: 80 g/ha, visual assessment after about 3 weeks
Method: as §1

Lolium multiflorum [6] = experiment: Pre-emergence herbicidal effect; settings: 320 g/ha, visual score after 3 weeks
Source text: (§2) Seeds of monocotyledonous and dicotyledonous weed plants and crop plants are laid out in wood-fibre pots in sandy loam and covered with soil. The compounds according to the invention formulated in the form of wettable powders (WP) or as emulsion concentrates (EC) are then applied as aqueous suspension or emulsion at a water application rate of 600 to 800 l/ha (converted) with the addition of 0.2% wetting agent to the surface of the covering soil. After the treatment, the pots are placed in a greenhouse and kept under good growth conditions for the trial plants. The damage to the test plants is scored visually after a test period of 3 weeks by comparison with untreated controls (herbicidal activity in percent (%): 100% activity=the plants have died, 0% activity=like control plants).

Avena fatua [7] = experiment: Pre-emergence herbicidal effect; settings: 320 g/ha, visual score after 3 weeks
Source text: as §2

Setaria viridis [8] = experiment: Pre-emergence herbicidal effect; settings: 320 g/ha, visual score after 3 weeks
Source text: as §2

Alopecurus myosuroides [9] = experiment: Pre-emergence herbicidal effect; settings: 320 g/ha, visual score after 3 weeks
Source text: as §2

Echinochloa crus-galli [10] = experiment: Pre-emergence herbicidal effect; settings: 320 g/ha, visual score after 3 weeks
Source text: as §2

CC#Cc1cc(C)c(C2=C(O)C3(CCC(COC)C3)NC2=O)c(CC)c1 (stereo not drawn) [Example I-10]
80-100%: Post-emergence effectiveness LOLMU (Lolium multiflorum [1]) | Post-emergence effectiveness AVEFA (Avena fatua [2]) | Post-emergence effectiveness SETVI (Setaria viridis [3]) | Post-emergence effectiveness ALOMY (Alopecurus myosuroides [4]) | Post-emergence effectiveness ECHCG (Echinochloa crus-galli [5]) | Pre-emergence effectiveness LOLMU (Lolium multiflorum [6]) | Pre-emergence effectiveness AVEFA (Avena fatua [7]) | Pre-emergence effectiveness SETVI (Setaria viridis [8]) | Pre-emergence effectiveness ALOMY (Alopecurus myosuroides [9]) | Pre-emergence effectiveness ECHCG (Echinochloa crus-galli [10])

CCc1cc(C#CC2CC2)cc(C)c1C1=C(O)C2(CCC(COC)C2)NC1=O (stereo not drawn) [Example I-11]
80-100%: Post-emergence effectiveness LOLMU (Lolium multiflorum [1]) | Post-emergence effectiveness AVEFA (Avena fatua [2]) | Post-emergence effectiveness SETVI (Setaria viridis [3]) | Post-emergence effectiveness ALOMY (Alopecurus myosuroides [4]) | Post-emergence effectiveness ECHCG (Echinochloa crus-galli [5]) | Pre-emergence effectiveness LOLMU (Lolium multiflorum [6]) | Pre-emergence effectiveness AVEFA (Avena fatua [7]) | Pre-emergence effectiveness SETVI (Setaria viridis [8]) | Pre-emergence effectiveness ALOMY (Alopecurus myosuroides [9]) | Pre-emergence effectiveness ECHCG (Echinochloa crus-galli [10])

CCc1cc(C#CC2CC2)cc(C)c1C1=C(O)C2(CCC(COC)C2)NC1=O (stereo not drawn) [Example I-12]
80-100%: Post-emergence effectiveness LOLMU (Lolium multiflorum [1]) | Post-emergence effectiveness AVEFA (Avena fatua [2]) | Post-emergence effectiveness SETVI (Setaria viridis [3]) | Post-emergence effectiveness ALOMY (Alopecurus myosuroides [4]) | Post-emergence effectiveness ECHCG (Echinochloa crus-galli [5]) | Pre-emergence effectiveness LOLMU (Lolium multiflorum [6]) | Pre-emergence effectiveness AVEFA (Avena fatua [7]) | Pre-emergence effectiveness SETVI (Setaria viridis [8]) | Pre-emergence effectiveness ALOMY (Alopecurus myosuroides [9]) | Pre-emergence effectiveness ECHCG (Echinochloa crus-galli [10])

CC#Cc1cc(C)c(C2=C(OC(=O)C(C)C)C3(CCC(COC)C3)NC2=O)c(CC)c1 (stereo not drawn) [Example Ia-6]
80-100%: Post-emergence effectiveness LOLMU (Lolium multiflorum [1]) | Post-emergence effectiveness AVEFA (Avena fatua [2]) | Post-emergence effectiveness SETVI (Setaria viridis [3]) | Post-emergence effectiveness ALOMY (Alopecurus myosuroides [4]) | Post-emergence effectiveness ECHCG (Echinochloa crus-galli [5]) | Pre-emergence effectiveness LOLMU (Lolium multiflorum [6]) | Pre-emergence effectiveness AVEFA (Avena fatua [7]) | Pre-emergence effectiveness SETVI (Setaria viridis [8]) | Pre-emergence effectiveness ALOMY (Alopecurus myosuroides [9]) | Pre-emergence effectiveness ECHCG (Echinochloa crus-galli [10])

CC#Cc1cc(C)c(C2=C(OC(=O)C(C)C)C3(CCC(COC)C3)NC2=O)c(CC)c1 (stereo not drawn) [Example Ia-8]
80-100%: Post-emergence effectiveness LOLMU (Lolium multiflorum [1]) | Post-emergence effectiveness AVEFA (Avena fatua [2]) | Post-emergence effectiveness SETVI (Setaria viridis [3]) | Post-emergence effectiveness ALOMY (Alopecurus myosuroides [4]) | Post-emergence effectiveness ECHCG (Echinochloa crus-galli [5]) | Pre-emergence effectiveness LOLMU (Lolium multiflorum [6]) | Pre-emergence effectiveness AVEFA (Avena fatua [7]) | Pre-emergence effectiveness SETVI (Setaria viridis [8]) | Pre-emergence effectiveness ALOMY (Alopecurus myosuroides [9]) | Pre-emergence effectiveness ECHCG (Echinochloa crus-galli [10])

CC#Cc1cc(C)c(C2=C(OC(=O)C(C)C)C3(CCC(COC)C3)NC2=O)c(CC)c1 (stereo not drawn) [Example Ia-9]
80-100%: Post-emergence effectiveness LOLMU (Lolium multiflorum [1]) | Post-emergence effectiveness AVEFA (Avena fatua [2]) | Post-emergence effectiveness SETVI (Setaria viridis [3]) | Post-emergence effectiveness ALOMY (Alopecurus myosuroides [4]) | Post-emergence effectiveness ECHCG (Echinochloa crus-galli [5]) | Pre-emergence effectiveness LOLMU (Lolium multiflorum [6]) | Pre-emergence effectiveness AVEFA (Avena fatua [7]) | Pre-emergence effectiveness SETVI (Setaria viridis [8]) | Pre-emergence effectiveness ALOMY (Alopecurus myosuroides [9]) | Pre-emergence effectiveness ECHCG (Echinochloa crus-galli [10])

CCc1cc(C#CC2CC2)cc(C)c1C1=C(OC(=O)C(C)C)C2(CCC(COC)C2)NC1=O (stereo not drawn) [Example Ia-11]
80-100%: Post-emergence effectiveness LOLMU (Lolium multiflorum [1]) | Post-emergence effectiveness AVEFA (Avena fatua [2]) | Post-emergence effectiveness SETVI (Setaria viridis [3]) | Post-emergence effectiveness ALOMY (Alopecurus myosuroides [4]) | Post-emergence effectiveness ECHCG (Echinochloa crus-galli [5]) | Pre-emergence effectiveness LOLMU (Lolium multiflorum [6]) | Pre-emergence effectiveness AVEFA (Avena fatua [7]) | Pre-emergence effectiveness SETVI (Setaria viridis [8]) | Pre-emergence effectiveness ALOMY (Alopecurus myosuroides [9]) | Pre-emergence effectiveness ECHCG (Echinochloa crus-galli [10])

CCc1cc(C#CC2CC2)cc(C)c1C1=C(OC(=O)C(C)C)C2(CCC(COC)C2)NC1=O (stereo not drawn) [Example Ia-12]
80-100%: Post-emergence effectiveness LOLMU (Lolium multiflorum [1]) | Post-emergence effectiveness AVEFA (Avena fatua [2]) | Post-emergence effectiveness SETVI (Setaria viridis [3]) | Post-emergence effectiveness ALOMY (Alopecurus myosuroides [4]) | Post-emergence effectiveness ECHCG (Echinochloa crus-galli [5]) | Pre-emergence effectiveness LOLMU (Lolium multiflorum [6]) | Pre-emergence effectiveness AVEFA (Avena fatua [7]) | Pre-emergence effectiveness SETVI (Setaria viridis [8]) | Pre-emergence effectiveness ALOMY (Alopecurus myosuroides [9]) | Pre-emergence effectiveness ECHCG (Echinochloa crus-galli [10])

CC#Cc1cc(C)c(C2=C(OC(=O)C(C)C)C3(CCC(COC)CC3)NC2=O)c(CC)c1 (stereo not drawn) [Ia-3]
80-100%: Post-emergence effectiveness LOLMU (Lolium multiflorum [1]) | Post-emergence effectiveness AVEFA (Avena fatua [2]) | Post-emergence effectiveness SETVI (Setaria viridis [3]) | Post-emergence effectiveness ALOMY (Alopecurus myosuroides [4]) | Post-emergence effectiveness ECHCG (Echinochloa crus-galli [5]) | Pre-emergence effectiveness LOLMU (Lolium multiflorum [6]) | Pre-emergence effectiveness AVEFA (Avena fatua [7]) | Pre-emergence effectiveness SETVI (Setaria viridis [8]) | Pre-emergence effectiveness ALOMY (Alopecurus myosuroides [9]) | Pre-emergence effectiveness ECHCG (Echinochloa crus-galli [10])
